This test addresses Rheb (Ras homolog enriched in brain), endogenous in HeLa cells (human (endogenous in HeLa)) (UniProt Q15382). The test is described as follows: co-IP.

These are yes or no findings as the source states them, for the method shown. Binding seen in cells or lysates may run through a third protein. Some results given as binding are weak or reduced against the parent protein; the word gives no strength.

The values below come from doi:10.1101/2025.03.31.646364.

B1: SIRT2 (Sirtuin 2), endogenous in HeLa cells (protein, UniProt Q8IXJ6 1-389)
chain: MAEPDPSHPLETQAGKVQEAQDSDSDSEGGAAGGEADMDFLRNLFSQTLSLGSQKERLLDELTLEGVARYMQSERCRRVICLVGAGISTSAGIPDFRSPSTGLYDNLEKYHLPYPEAIFEISYFKKHPEPFFALAKELYPGQFKPTICHYFMRLLKDKGLLLRCYTQNIDTLERIAGLEQEDLVEAHGTFYTSHCVSASCRHEYPLSWMKEKIFSEVTPKCEDCQSLVKPDIVFFGESLPARFFSCMQSDFLKVDLLLVMGTSLQVQPFASLISKAPLSTPRLLINKEKAGQSDPFLGMIMGLGGGMDFDSKKAYRDVAWLGECDQGCLALAELLGWKKELEDLVRREHASIDAQSGAGVPNPSTSASPKKSPPPAKDEARTTEREKPQ
On to B1, for which the binding entry is on record as “binds”.
